{"sequences": {"note": "Amino acid sequences for entries named in this document (tags omitted). A change or cut given only in a name is not applied to a line headed by its entry. Residues count along the entry.", "UniProt P97321": "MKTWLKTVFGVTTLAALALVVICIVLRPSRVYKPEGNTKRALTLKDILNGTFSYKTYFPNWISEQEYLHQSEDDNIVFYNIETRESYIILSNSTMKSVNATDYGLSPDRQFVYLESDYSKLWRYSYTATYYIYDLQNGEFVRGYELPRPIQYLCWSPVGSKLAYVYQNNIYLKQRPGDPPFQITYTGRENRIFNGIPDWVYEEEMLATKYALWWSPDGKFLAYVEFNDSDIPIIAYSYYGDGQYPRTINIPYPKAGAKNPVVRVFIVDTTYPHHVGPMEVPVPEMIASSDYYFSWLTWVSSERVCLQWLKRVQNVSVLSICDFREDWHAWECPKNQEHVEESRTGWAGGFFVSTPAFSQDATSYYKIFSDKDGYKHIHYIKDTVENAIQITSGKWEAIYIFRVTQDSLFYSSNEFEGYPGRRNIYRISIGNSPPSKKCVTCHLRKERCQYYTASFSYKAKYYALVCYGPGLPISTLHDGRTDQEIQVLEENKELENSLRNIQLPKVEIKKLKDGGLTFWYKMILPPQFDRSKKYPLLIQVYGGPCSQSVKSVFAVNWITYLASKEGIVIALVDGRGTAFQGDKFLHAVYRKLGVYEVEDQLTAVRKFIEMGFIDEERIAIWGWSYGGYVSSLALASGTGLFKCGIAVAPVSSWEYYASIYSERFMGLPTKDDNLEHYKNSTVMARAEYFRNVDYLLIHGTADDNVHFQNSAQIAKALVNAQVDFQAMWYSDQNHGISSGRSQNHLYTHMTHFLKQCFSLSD", "UniProt Q07011, residues 24-186": "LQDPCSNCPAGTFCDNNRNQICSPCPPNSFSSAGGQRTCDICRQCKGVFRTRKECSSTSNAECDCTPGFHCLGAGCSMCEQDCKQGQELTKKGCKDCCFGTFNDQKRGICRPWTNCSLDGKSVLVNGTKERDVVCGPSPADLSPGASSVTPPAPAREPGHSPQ"}, "source": "patent US20250136720A1", "binders": {"B1": {"name": "FAP.63.G3 (Fc fusion)", "VH": "DVQLVESGGGVVRPGESLTLSCAASGFTFSNYDMGWVRQAPGEGLEWVSGIRGRGGSTYYADSVKGRFTISRDSSKNTLYLQMNSLRAEDTAVYYCAKENNRHSFFEYWGLGTLVTVSS", "VL": "EIVLTQSPGTLSLSPGERATLSCRASQSVGHYLAWYQQKPGQAPRLLIYDASNRAIDIPDRFSGSGSGTEFTLTISRLEPEDFAVYYCQQYYNNWPPLTFGGGTKVEIK"}, "B2": {"name": "chimeric CD137 B21 Fab (Fab, V domains shown)", "VH": "EVKLVESEGGLVQPGSSMKLSCTASGFTFSDFYMAWVRQVPEKGLEWVANINYDGSSTYYLDSLKSRFIISRDNARNILYLQMSSLKSEDTATYYCAREGDEGWYFDVWGAGTTVTVSS", "VL": "DIVMTQSHKFMSTSVGDRVSITCKASQDVSTAVAWYQQKPGQSPKLLIYSASYRYTGVPDRFTGSGSGTDFTFTISSVQAEDLAVYYCQQHYSNPWTFGGGTKLEIK"}, "B3": {"name": "B21-55 (Fab, V domains shown)", "VH": "EVQLVESGGGLVQPGGSLRLSCAASGFTFSDFYMAWVRQAPGKGLEWVANINYDGSSTYYLDSLKSRFTISRDNAKNILYLQMNSLRAEDTAVYYCAREGDEGWYFDVWGQGTTVTVSS", "VL": "DIQMTQSPSSLSASVGDRVTITCKASQDVSTAVAWYQQKPGKAPKLLIYSASYRYTGVPSRFSGSGSGTDFTLTISSLQPEDFAVYYCQQHYSNPWTFGQGTKLEIK"}, "B4": {"name": "B21-49 (Fab, V domains shown)", "VH": "B3 VH with R67K, N84Q", "VL": "B3 VL with S60D"}, "B5": {"name": "B21-v14 (Fab, V domains shown)", "VH": "B3 VH with A35S, G55A, L61V", "VL": "B3 VL with T31S, R54L, Y55Q, T56S"}, "B6": {"name": "B21-v18 (Fab, V domains shown)", "VH": "B3 VH with A35S, D54E, T58K, L61V, S66G", "VL": "B3 VL with K24R, D28S, V33L, S50A, Y53S, T56S"}, "B7": {"name": "B21-v15 (Fab, V domains shown)", "VH": "B3 VH with A35S, G55A, S66G", "VL": "B3 VL with V29I, V33L, S50A, R54L, Y55Q, T56S"}, "B8": {"name": "B21-v17 (Fab, V domains shown)", "VH": "B3 VH with A35S, D54E, L61V, L64V, S66G", "VL": "B3 VL with K24R, V29I"}, "B9": {"name": "B21-v16 (Fab, V domains shown)", "VH": "B3 VH with A35S, D54E, T58K, L61V, D62E, L64V, S66G", "VL": "B3 VL with V29I, T31S, Y53S"}, "B10": {"name": "B21-51 (Fab, V domains shown)", "VH": "B3 VH with T69I, N84S", "VL": "B3 VL with S60D"}, "B11": {"name": "B21-69 (Fab, V domains shown)", "VH": "B3 VH with A23T", "VL": "B3 VL with T20S"}, "B12": {"name": "B21-68 (Fab, V domains shown)", "VH": "B3 VH with N84Q", "VL": "B3 VL with V85T"}, "B13": {"name": "B21-46 (Fab, V domains shown)", "VH": "B3 VH with I78S", "VL": "B3 VL with T20S, S60D"}, "B14": {"name": "B21-47 (Fab, V domains shown)", "VH": "B3 VH with T69I", "VL": "B3 VL with S60D, V85T"}, "B15": {"name": "B21-61 (Fab, V domains shown)", "VH": "B3 VH with I78S, N84Q", "VL": "B3 VL with T20S, S60D, V85T"}, "B16": {"name": "B21-72 (Fab, V domains shown)", "VH": "B3 VH with N84S", "VL": "B3 VL with T20S, S60D, V85T"}, "B17": {"name": "B21-48 (Fab, V domains shown)", "VH": "B3 VH with T69I, N84Q", "VL": "B3 VL with T20S"}, "B18": {"name": "CD137 #B13 (antibody, human IgG1, V domains shown)", "VH": "QVQLQQPGAELVKPGASVKLSCKASGYTFTNFWINWVKQRPGQALEWIGNIYPGNDNTNYNGNFKTKATLTVDRSSSTAYMHLSSLTSKDSAVYYCARGQLGLDYWGQGTTLTVSS", "VL": "DILLTQSPAILSVSPGERVSFSCRASQNIGTTIHWYHQRTNGSPRLLIKFASESISGIPSRFSGSGSGTDFTLSINSVESEDFADYYCQQSNSWPFTFGSGTKLEIK"}, "B19": {"name": "CD137 #B17 (antibody, human IgG1, V domains shown)", "VH": "EVQLQQSGPELVKPGASVKMSCKASGYTFTYYVMHWVKQKPGQGLEWIGYINPYNDGTKYNEKFKGKATLTSDKSSSTAYMELSSLTSEDSAVYYCAPGSVDYWGQGTTLTVSS", "VL": "DIVMTQSQKFMSTSVGDRVSITCKASQNVGTSVAWYQQKSGHSPKLLIYSASNRNTGVPDRFTGSGSGTDFTLTISNMQSEDLADYFCQQYSTYPLTFGSGTKLEIK"}, "B20": {"name": "CD137 #B19 (antibody, human IgG1, V domains shown)", "VH": "QVQLKQSGPGLVPPSQSLSITCTVSGFSLSSYGVHWVRQSPGKGLEWLGVIWSGGNTDFNAAFVSRLSISTEISESQVFFRMNSLQADDTAIYYCARNGPQYYFAMDYWGQGTSVTVSS", "VL": "DIVLTQSPASLTVSLGQRATISCRANKSVSTSGYSYMHWHQQKPGQPPKLLIYLASNLESGVPARFSGSGSGTDFTLNIHPVEEEDAATYYCQHSRELPLTFGAGTKLELK"}, "B21": {"name": "CD137 #B20 (antibody, human IgG1, V domains shown)", "VH": "B2 VH", "VL": "B2 VL"}, "B22": {"name": "CD137 #B21 (antibody, human IgG1, V domains shown)", "VH": "B2 VH", "VL": "B2 VL"}, "B23": {"name": "CD137 #B27 (antibody, human IgG1, V domains shown)", "VH": "QVQLQQSGAELVRPGASVKISCKAFGYTFTNHHINWVKQRPGQGLDWIGYINPYNDYSGYNQKFKGRATLTVDKSSNTAYMELSSLTSEDSAVYYCATPGTWEGYYFDYWGQGTTLTVSS", "VL": "DVVMTQTPLSLPVSLGDQASISCRSSQSLVHSNGNTYLEWYLQKPGQSPKVLIYMVSNRFSGVPDRFSGSGSGTDFTLKISRVEAEDLGVYYCFQGSHIPLTFGAGTKLELK"}, "B24": {"name": "CD137 #B28 (antibody, human IgG1, V domains shown)", "VH": "QVQLQQSGPQLIRPGASVKISCKASGYSFTGYWIHWVKQRPGQGLEWIGMIDPSDSETRLNQKFKDKATLTVDKSSTTAYMQLSSPTSEDSAVFYCARYRNYGYDGFAHWGQGTLVTVSA", "VL": "DIVMTQSPSSLTVTAGEKVTMSCKSSQSLLNSGNEKNYLAWYQQKPGQPPKLLIYWASTRESGVPDRFTGSGSGTDFTLTISSVQTEDLAVYHCQNDYSLPLTFGAGTKLELK"}, "B25": {"name": "CD137 #B30 (antibody, human IgG1, V domains shown)", "VH": "B24 VH", "VL": "B24 VL"}, "B26": {"name": "CD137 #B31 (antibody, human IgG1, V domains shown)", "VH": "B24 VH", "VL": "B24 VL"}}, "note": "Substitutions are numbered along the chain they refer to. These are yes or no findings as the source states them, for the method shown. Some results given as binding are weak or reduced against the parent protein; the word gives no strength.", "data": [{"target": "Murine Fibroblast Activation Protein (FAP) on B16 cells (mouse) (UniProt P97321)", "assay": "flow cytometry, scFv-Fc on B16 cells expressing murine FAP against B16 wild type", "values": [{"binder": "B1", "binding": "binds"}]}, {"target": "biotinylated huCD137-6xHis (human) (UniProt Q07011)", "assay": "sandwich ELISA, Fab captured by anti-Fd, biotinylated huCD137", "values": [{"binder": "B2", "binding": "binds"}, {"binder": "B3", "binding": "binds"}, {"binder": "B4", "binding": "binds"}]}, {"target": "biotinylated huCD137-6xHis (human) (UniProt Q07011)", "assay": "ELISA, Fab captured by anti-Fd, biotinylated huCD137 (y axis unlabelled, 0.00-1.75; no negative control on the sheet)", "values": [{"binder": "B2", "binding": "binds"}, {"binder": "B5", "binding": "binds"}, {"binder": "B6", "binding": "binds"}, {"binder": "B7", "binding": "binds"}, {"binder": "B8", "binding": "binds"}, {"binder": "B9", "binding": "binds"}]}, {"target": "biotinylated huCD137-6xHis (human) (UniProt Q07011)", "assay": "ELISA, Fab captured by anti-Fd, biotinylated huCD137 (y axis unlabelled, 0.00-0.75; no negative control on the sheet)", "values": [{"binder": "B2", "binding": "binds"}, {"binder": "B3", "binding": "binds"}, {"binder": "B4", "binding": "binds"}, {"binder": "B10", "binding": "binds"}, {"binder": "B11", "binding": "binds"}, {"binder": "B12", "binding": "binds"}, {"binder": "B13", "binding": "binds"}, {"binder": "B14", "binding": "binds"}, {"binder": "B15", "binding": "binds"}, {"binder": "B16", "binding": "binds"}, {"binder": "B17", "binding": "binds"}]}, {"target": "biotinylated huCD137-6xHis (human) (UniProt Q07011)", "assay": "sandwich ELISA: Fab captured by anti-Fd, titration of biotinylated huCD137 (x axis: Log concentration, ug/ml AG)", "values": [{"binder": "B2", "binding": "binds"}]}, {"target": "Cynomolgus CD137 (4-1BB, TNFRSF9) (cynomolgus)", "assay": "flow cytometry, CHO cells expressing cynomolgus CD137, PE anti-human IgG-Fc", "values": [{"binder": "B18", "binding": "binds"}, {"binder": "B19", "binding": "binds"}, {"binder": "B20", "binding": "binds"}, {"binder": "B21", "binding": "binds"}, {"binder": "B22", "binding": "binds"}, {"binder": "B23", "binding": "binds"}, {"binder": "B24", "binding": "binds"}, {"binder": "B25", "binding": "binds"}, {"binder": "B26", "binding": "binds"}]}]}
